Our source for the log2 fold change values is the supplement of paper PMC10849652.

Sequences of proteins named here, by UniProt entry; tags and fusion partners are left off. A change or cut given only in a name is not applied to a line headed by its entry.
UniProt Q9BY44: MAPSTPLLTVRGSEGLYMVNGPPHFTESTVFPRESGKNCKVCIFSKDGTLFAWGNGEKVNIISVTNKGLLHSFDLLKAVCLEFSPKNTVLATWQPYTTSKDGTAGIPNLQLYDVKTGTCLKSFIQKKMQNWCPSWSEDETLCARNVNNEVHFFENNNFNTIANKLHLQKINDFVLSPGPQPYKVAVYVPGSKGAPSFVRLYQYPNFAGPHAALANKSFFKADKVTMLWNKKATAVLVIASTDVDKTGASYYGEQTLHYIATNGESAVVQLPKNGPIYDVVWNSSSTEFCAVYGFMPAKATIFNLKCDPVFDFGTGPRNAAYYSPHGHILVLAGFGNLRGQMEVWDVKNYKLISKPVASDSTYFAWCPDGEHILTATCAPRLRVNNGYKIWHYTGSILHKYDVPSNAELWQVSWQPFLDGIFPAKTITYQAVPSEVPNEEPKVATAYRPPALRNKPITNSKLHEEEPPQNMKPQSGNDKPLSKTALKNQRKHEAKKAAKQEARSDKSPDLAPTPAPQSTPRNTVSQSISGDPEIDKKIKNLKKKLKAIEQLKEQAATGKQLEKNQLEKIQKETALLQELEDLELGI
UniProt O94919: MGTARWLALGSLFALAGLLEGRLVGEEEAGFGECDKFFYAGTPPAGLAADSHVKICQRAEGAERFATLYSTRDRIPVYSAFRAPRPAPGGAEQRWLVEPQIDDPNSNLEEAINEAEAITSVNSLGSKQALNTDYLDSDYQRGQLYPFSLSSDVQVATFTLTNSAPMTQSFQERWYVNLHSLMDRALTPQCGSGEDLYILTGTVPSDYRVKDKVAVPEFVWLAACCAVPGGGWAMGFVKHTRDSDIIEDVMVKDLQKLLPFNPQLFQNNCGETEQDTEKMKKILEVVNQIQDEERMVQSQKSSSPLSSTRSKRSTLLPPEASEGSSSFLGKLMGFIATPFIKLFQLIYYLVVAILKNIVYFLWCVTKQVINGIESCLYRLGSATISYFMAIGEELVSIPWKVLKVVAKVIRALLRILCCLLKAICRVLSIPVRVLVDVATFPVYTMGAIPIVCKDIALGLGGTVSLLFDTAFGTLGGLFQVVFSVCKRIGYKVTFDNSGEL
UniProt Q9P0I2: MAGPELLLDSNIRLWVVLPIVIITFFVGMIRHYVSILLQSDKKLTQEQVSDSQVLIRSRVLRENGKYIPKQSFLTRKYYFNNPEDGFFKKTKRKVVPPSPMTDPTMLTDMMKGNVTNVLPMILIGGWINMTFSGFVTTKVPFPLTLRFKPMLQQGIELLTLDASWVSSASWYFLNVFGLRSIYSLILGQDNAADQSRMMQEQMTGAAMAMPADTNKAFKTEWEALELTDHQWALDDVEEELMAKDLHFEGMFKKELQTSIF
UniProt P78344: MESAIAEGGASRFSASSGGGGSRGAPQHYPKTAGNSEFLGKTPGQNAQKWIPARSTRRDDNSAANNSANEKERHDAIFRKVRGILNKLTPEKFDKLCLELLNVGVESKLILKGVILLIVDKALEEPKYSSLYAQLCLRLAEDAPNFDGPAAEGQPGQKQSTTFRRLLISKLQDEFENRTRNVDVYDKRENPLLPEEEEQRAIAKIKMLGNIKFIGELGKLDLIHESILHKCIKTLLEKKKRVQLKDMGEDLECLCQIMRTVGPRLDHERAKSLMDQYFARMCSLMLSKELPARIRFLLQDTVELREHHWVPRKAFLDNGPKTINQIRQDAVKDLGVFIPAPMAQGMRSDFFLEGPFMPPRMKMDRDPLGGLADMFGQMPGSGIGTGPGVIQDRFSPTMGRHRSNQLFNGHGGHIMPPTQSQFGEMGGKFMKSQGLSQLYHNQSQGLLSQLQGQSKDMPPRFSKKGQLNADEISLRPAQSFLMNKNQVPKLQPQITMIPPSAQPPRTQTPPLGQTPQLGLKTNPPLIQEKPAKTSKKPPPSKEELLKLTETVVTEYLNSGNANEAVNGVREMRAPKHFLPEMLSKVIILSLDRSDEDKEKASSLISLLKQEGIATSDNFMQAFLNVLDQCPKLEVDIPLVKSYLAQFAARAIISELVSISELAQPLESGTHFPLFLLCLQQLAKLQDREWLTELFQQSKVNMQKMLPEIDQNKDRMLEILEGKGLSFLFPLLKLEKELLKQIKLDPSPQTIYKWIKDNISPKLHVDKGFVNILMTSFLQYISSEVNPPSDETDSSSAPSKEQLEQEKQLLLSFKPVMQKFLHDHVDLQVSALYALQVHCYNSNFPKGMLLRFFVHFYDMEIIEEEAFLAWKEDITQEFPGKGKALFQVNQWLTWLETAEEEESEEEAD
UniProt Q09472, whole entry, looked up: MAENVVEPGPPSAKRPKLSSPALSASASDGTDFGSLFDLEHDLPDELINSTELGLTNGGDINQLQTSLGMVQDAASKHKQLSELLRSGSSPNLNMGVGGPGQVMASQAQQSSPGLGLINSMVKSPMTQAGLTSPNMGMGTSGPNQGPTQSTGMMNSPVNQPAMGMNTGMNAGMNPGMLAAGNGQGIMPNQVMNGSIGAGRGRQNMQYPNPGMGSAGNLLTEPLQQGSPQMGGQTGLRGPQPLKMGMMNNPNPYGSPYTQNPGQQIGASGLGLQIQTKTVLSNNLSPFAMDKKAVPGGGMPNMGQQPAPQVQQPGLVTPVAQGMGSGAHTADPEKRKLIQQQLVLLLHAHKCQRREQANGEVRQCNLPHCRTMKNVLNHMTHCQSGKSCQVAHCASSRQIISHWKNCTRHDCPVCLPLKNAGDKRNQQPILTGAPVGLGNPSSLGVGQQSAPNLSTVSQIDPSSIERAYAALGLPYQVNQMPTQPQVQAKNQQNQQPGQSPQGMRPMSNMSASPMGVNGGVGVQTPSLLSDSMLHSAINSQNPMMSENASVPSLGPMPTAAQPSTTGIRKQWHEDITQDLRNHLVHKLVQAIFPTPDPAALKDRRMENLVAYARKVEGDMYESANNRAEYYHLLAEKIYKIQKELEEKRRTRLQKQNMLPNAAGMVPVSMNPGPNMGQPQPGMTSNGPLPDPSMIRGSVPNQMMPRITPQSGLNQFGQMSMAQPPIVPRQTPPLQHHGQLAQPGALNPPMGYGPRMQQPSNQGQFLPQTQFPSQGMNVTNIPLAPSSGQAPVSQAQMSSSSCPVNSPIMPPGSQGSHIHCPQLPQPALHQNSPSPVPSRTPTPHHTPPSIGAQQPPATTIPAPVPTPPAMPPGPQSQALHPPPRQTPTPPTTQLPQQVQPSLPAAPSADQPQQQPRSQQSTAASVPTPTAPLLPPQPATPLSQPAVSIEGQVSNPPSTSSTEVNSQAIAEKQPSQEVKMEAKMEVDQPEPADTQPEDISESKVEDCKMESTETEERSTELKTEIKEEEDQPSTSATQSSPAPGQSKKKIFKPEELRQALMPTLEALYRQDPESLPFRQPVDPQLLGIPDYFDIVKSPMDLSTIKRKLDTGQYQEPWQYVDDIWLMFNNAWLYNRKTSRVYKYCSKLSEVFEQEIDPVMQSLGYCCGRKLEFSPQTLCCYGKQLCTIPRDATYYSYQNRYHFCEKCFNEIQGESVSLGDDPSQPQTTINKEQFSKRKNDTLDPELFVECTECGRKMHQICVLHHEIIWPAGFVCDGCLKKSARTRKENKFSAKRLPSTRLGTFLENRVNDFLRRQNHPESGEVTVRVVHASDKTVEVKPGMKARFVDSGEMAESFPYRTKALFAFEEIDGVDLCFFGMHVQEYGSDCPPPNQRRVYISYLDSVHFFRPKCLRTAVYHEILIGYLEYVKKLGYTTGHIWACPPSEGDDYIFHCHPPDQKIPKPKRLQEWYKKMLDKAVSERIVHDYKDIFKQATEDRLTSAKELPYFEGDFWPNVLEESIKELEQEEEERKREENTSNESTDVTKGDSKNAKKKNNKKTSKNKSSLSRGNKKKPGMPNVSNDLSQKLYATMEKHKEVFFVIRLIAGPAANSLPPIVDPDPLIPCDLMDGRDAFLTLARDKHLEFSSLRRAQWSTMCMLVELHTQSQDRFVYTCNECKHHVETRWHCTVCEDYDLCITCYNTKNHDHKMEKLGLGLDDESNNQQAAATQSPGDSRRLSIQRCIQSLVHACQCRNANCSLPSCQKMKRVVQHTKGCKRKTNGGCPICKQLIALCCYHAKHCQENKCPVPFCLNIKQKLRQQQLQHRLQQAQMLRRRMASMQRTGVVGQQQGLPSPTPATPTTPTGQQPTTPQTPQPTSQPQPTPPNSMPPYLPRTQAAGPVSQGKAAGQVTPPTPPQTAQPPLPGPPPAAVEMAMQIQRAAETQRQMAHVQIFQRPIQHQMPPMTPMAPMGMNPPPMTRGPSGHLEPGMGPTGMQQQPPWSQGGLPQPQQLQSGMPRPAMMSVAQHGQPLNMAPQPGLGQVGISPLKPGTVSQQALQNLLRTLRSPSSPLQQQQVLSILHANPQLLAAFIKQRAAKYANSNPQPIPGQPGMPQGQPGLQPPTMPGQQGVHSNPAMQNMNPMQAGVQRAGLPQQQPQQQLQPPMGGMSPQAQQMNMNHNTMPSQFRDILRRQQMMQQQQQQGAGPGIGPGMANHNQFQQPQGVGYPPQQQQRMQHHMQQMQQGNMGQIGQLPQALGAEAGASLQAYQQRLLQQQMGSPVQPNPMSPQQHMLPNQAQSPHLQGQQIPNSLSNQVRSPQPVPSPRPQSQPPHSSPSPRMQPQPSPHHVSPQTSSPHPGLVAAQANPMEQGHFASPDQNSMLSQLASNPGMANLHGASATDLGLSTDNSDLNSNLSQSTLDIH
UniProt P41214: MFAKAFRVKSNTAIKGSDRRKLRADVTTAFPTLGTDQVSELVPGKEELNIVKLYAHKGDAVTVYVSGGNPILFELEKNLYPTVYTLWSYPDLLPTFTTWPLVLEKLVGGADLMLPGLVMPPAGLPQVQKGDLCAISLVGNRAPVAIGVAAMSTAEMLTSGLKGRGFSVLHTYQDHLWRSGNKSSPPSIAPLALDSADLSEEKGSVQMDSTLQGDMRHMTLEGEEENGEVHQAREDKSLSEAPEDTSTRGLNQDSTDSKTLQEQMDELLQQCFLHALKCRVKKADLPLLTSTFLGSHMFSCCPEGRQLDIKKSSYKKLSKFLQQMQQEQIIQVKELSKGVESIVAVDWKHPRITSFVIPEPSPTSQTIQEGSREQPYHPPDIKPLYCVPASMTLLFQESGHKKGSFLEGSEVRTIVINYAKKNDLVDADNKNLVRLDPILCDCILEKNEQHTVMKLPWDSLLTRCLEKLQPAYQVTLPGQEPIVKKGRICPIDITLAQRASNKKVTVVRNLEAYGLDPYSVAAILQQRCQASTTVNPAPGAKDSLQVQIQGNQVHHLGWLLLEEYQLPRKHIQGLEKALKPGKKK
UniProt Q9NZJ5: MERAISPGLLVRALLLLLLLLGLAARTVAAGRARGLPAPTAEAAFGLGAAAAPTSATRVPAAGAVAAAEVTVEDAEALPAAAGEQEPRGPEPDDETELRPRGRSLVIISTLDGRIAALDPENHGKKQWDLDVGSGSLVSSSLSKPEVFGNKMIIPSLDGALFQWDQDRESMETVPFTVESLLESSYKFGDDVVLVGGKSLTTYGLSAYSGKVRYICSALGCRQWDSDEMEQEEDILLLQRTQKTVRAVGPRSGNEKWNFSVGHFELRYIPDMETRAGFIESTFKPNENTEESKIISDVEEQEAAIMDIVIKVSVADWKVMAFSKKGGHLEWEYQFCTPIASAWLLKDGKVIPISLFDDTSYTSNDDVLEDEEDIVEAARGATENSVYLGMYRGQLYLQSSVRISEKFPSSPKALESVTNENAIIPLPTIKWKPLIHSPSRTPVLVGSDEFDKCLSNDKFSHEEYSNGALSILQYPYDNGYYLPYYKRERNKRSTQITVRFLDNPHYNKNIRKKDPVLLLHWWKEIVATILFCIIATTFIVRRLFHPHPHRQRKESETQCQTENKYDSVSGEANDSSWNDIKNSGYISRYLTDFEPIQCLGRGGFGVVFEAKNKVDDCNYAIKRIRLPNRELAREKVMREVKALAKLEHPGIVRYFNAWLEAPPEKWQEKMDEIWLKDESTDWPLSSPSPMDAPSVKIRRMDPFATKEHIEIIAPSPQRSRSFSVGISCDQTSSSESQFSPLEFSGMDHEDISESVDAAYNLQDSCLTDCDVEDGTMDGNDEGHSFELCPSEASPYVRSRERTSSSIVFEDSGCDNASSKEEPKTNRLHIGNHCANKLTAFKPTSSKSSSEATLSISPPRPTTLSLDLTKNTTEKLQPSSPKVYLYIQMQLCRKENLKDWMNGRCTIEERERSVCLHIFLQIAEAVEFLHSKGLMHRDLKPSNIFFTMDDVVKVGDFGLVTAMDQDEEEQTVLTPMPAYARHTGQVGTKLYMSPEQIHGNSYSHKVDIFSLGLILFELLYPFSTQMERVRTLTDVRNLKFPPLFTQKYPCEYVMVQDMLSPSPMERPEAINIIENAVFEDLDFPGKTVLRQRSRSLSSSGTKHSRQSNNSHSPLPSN

The list shows a part of the results.

Common to all, as to assay: log2 fold change, soluble protein after heating vs DMSO (PISA); higher = thermal stabilisation; K562 cells, 10 uM, 30 min; active = over 0.2 and 3.5 SD of the protein, either way, in both replicates (recomputed)
Compound in assay [1]: C1=CC=C(C=C1)[C@H](COC2=CC3=C(C=C2)NC(=O)N3)NC(=O)C4=CC=CN(C4=O)CC5=CC(=C(C=C5)F)F
The method in brief:
(§1)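 K562 cells at 2×10^6 cells/mL were treated for 30 min with 10 μM compound, and aliquots were heated for 3 min over 48°C-58°C before pooling. Extraction used PBS with 0.5% NP-40 at 4°C, and soluble protein was the supernatant after 21,000xg for 90 min, measured by TMTpro 16plex LC-MS/MS with channel sums equalised. Thermal stability values, relative to control samples and from duplicates, are log2 fold changes.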

Compound in assay [2]: CC1=C(SC2=C1C(=N[C@H](C3=NN=C(N32)C)CC(=O)N)C4=CC=C(C=C4)Cl)C
The method in brief: as §1

Compound in assay [3]: CC1=C2C(=CC=C1)N=C(N(C2=O)C3=CC=CC=C3C)CN4C=NC5=C(N=CN=C54)N
The method in brief: as §1

Compound in assay [4]: Cc1sc2c(c1C)C(c1ccc(Cl)cc1)=N[C@@H](CC(=O)OC(C)(C)C)c1nnc(C)n1-2
The method in brief: as §1

Compound in assay [5]: c1ccc([C@@H]2C[C@H]2NC2CCNCC2)cc1
The method in brief:
as §1

Turning to EIF3B isoform 2 (UniProt P55884), the log2 fold change is inactive: -0.049 in assay [1]; inactive: -0.042 in assay [2]; inactive: 0.013 in assay [3]; inactive: 0.083 in assay [4]; inactive: -0.022 in assay [5].

As for EIF4G3 isoform 3 (UniProt O43432), the log2 fold change in assay [1] is inactive: -0.021; in assay [2] it was inactive: 0.021; in assay [3] it was inactive: 0.184; in assay [4], inactive: 0.038; in assay [5], inactive: -0.06.

In the case of ENGASE (UniProt Q8NFI3), the log2 fold change in assay [1] is inactive: -0.005; in assay [2], inactive: 0.028; in assay [3], inactive: 0.135; in assay [4], inactive: -0.004; in assay [5], inactive: -0.072.

Turning to EIF2A (UniProt Q9BY44), the log2 fold change in assay [1] was inactive: 0.019; in assay [2] it was inactive: -0.062; in assay [3] it was inactive: -0.045; in assay [4] it was inactive: 0.03; in assay [5] it was inactive: -0.008.

Consider EFCAB14 (UniProt O75071), for which the log2 fold change in assay [1] was inactive: 0.045; in assay [2] it was active: -0.293; in assay [3] it was inactive: 0.016; in assay [4], inactive: 0.018; in assay [5] it was inactive: 0.321.

Regarding ENDOD1 (UniProt O94919), the log2 fold change is inactive: 0.017 in assay [1]; inactive: 0.014 in assay [2]; inactive: 0.031 in assay [3]; inactive: 0.023 in assay [4]; inactive: 0.059 in assay [5].

As to EMC3 (UniProt Q9P0I2), the log2 fold change is inactive: -0.003 in assay [1]; inactive: 0.06 in assay [2]; inactive: 0.038 in assay [3]; inactive: -0.037 in assay [4]; inactive: -0.029 in assay [5].

Regarding EIF4G2 (UniProt P78344), the log2 fold change in assay [1] is inactive: -0.096; in assay [2], inactive: -0.127; in assay [3], inactive: -0.036; in assay [4], inactive: 0.181; in assay [5], inactive: -0.025.

On to EP300 (UniProt Q09472), for which the log2 fold change in assay [1] was inactive: -0.123; in assay [2], inactive: 0.05; in assay [3], inactive: 0.07; in assay [4], inactive: -0.032; in assay [5] it was inactive: -0.011.

As for EIF2D (UniProt P41214), the log2 fold change is inactive: -0.127 in assay [1]; inactive: 0.012 in assay [2]; inactive: 0.131 in assay [3]; inactive: 0.08 in assay [4]; inactive: -0.049 in assay [5].

Take EIF2AK3 (UniProt Q9NZJ5): the log2 fold change in assay [1] is inactive: -0.473; in assay [2] it was inactive: -0.027; in assay [4], inactive: -0.196; in assay [5] it was inactive: 0.059.
